Where a name gives a salt, the structure may show the parent alone.
Conditions: FIG. 2A (CORDARONE 0-20%) / FIG. 2B (particulate amiodarone 0-10%)

- loading level in FOCALSEAL-L formulation that maintains acceptable pH and modulus values: about 1.5%
SMILES: CCCCc1oc2ccccc2c1C(=O)c1cc(I)c(OCCN(CC)CC)c(I)c1 [amiodarone, Amiodarone hydrochloride]
